PubChem BioAssay AID504793 – Drosophila RNAi Screening Center, 2011

Screen: 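Whole-genome screen for parts of the DNA damage checkpoint at G2/M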 (primary screen)
System: Drosophila S2R+ cells
Reagents: long dsRNA against Drosophila genes, about 0.25 µg dsRNA per well
Duration: 4 days of dsRNA, then 4 hours of drug before read-out
Challenge: doxorubicin 0.5 µM for 4 hours to cause double-strand breaks, in cells also given a low, harmless dose of dsRNA against nbs to sensitise the assay
Measurement: 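Per-well count of mitotic cells stained for phospho-histone H3 after doxorubicin exposure, used as mitotic index; counts are raw and not normalised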
Direction: mitotic cells: higher = more cells in mitosis, weaker G2 arrest
Rule for the call: 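Genes are called active only when high mitotic counts were reproduced with independent dsRNAs and mitosis was checked for delay without damage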
Calls: active = confirmed in follow-up tests; inactive = not confirmed
In all, the deposit lists about 23,000 reagents; this is a random part of those with a known target gene and a result. Of all reagents, 62 (0.27%) are marked active. 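Calls come from follow-up tests whose scores are not deposited, so confirmed genes may have low counts here; counts are not normalised per plate.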 The raw values are shown without normalisation. Entries without a mark were called inactive.

Gene | amplicon | mitotic cells, replicate 1 | mitotic cells, replicate 2
EMC1 | DRSC15455 | 8 | –
Pino | DRSC00038 | 4 | –
Pino | DRSC00662 | 4 | –
CG17734 | DRSC15256 | 5 | 13
CG17734 | DRSC29210 | 7 | –
CG8191 | DRSC20091 | 22 | –
CG46298 | DRSC06222 | 3 | –
CG46298 | DRSC23884 | 5 | –
Rpn5 | DRSC12367 | 32 | –
Rpn5 | DRSC28279 | 46 | –
CG13358 | DRSC18534 | 7 | –
CG13358 | DRSC23742 | 4 | –
CG45105 | DRSC15833 | 5 | –
CG45105 | DRSC25976 | 5 | –
CG30270 | DRSC22890 | 9 | –
SmydA-8 | DRSC22064 | 9 | –
SmydA-8 | DRSC22263 | 7 | –
osp | DRSC01409 | 6 | –
osp | DRSC03585 | 2 | –
CG30259 | DRSC04164 | 6 | –
CG30259 | DRSC04165 | 4 | –
CG32507 | DRSC20421 | 5 | –
CG4991 | DRSC19928 | 6 | –
Cyp12b2 | DRSC07364 | 4 | –
Bhmt | DRSC02079 | 5 | –
Bhmt | DRSC25655 | 5 | –
CG5103 | DRSC10481 | 4 | –
CG12877 | DRSC14565 | 9 | –
CG15731 | DRSC19698 | 13 | –
CG15731 | DRSC21820 | 9 | –
CG15731 | DRSC26144 | 7 | –
wry | DRSC00352 | 3 | –
wry | DRSC00456 | 6 | –
wry | DRSC22414 | 9 | –
mld | DRSC13681 | 3 | –
mld | DRSC14622 | 4 | –
mld | DRSC21771 | 16 | –
mld | DRSC23427 | 9 | –
mld | DRSC23729 | 6 | –
CG4666 | DRSC18379 | 13 | –
swi2 | DRSC06457 | 7 | –
CG10344 | DRSC04066 | 8 | –
CG10344 | DRSC24394 | 4 | –
PK1-R | DRSC16577 | 4 | –
CG13154 | DRSC06279 | 4 | –
GstE9 | DRSC06679 | 8 | –
GstE9 | DRSC29204 | 9 | –
Tim17a1 | DRSC14184 | 5 | –
Tsp29Fa | DRSC03232 | 6 | –
Tsp29Fa | DRSC28522 | 5 | –
CG13713 | DRSC08322 | 8 | –
Ptp99A | DRSC13939 | 5 | –
Ptp99A | DRSC14319 | 16 | –
Ptp99A | DRSC14320 | 8 | –
Ptp99A | DRSC16803 | 10 | –
Ptp99A | DRSC22125 | 8 | –
Ptp99A | DRSC22477 | 55 | –
Ptp99A | DRSC23033 | 7 | –
Jon44E | DRSC07216 | 11 | –
Jon44E | DRSC25190 | 4 | –
CG15005 | DRSC08459 | 7 | –
CG15005 | DRSC26556 | 4 | –
swm | DRSC02012 | 13 | –
swm | DRSC21831 | 5 | –
Zip71B | DRSC09686 | 7 | –
Zip71B | DRSC29491 | 7 | –
MtnB | DRSC22744 | 6 | –
MtnB | DRSC29147 | 2 | –
CG3592 | DRSC18315 | 17 | –
Osi21 | DRSC02408 | 2 | –
Dark | DRSC05922 | 5 | –
Dark | DRSC27800 | 4 | –
CG14861 | DRSC14984 | 3 | –
COX5B | DRSC02115 | 6 | –
CG45067 | DRSC08414 | 8 | –
CG45067 | DRSC27186 | 7 | –
CG2938 | DRSC18243 | 6 | –
CG2938 | DRSC27919 | 5 | –
CG5731 | DRSC02883 | 10 | –
CG5731 | DRSC25969 | 9 | –
CG17283 | DRSC15219 | 11 | –
CG4681 | DRSC04481 | 9 | –
CG4681 | DRSC26116 | 11 | –
CG6938 | DRSC10752 | 2 | –
CG6938 | DRSC28621 | 3 | –
CG18609 | DRSC06775 | 3 | –
CG18609 | DRSC27601 | 4 | –
CG10053 | DRSC12502 | 6 | –
CG10053 | DRSC29993 | 6 | –
CG5592 | DRSC10524 | 5 | –
CG11679 | DRSC19415 | 11 | –
Art8 | DRSC02530 | 5 | –
CG5639 | DRSC15851 | 13 | –
Cp36 | DRSC18452 | 6 | –
Cp36 | DRSC27244 | 3 | –
CG7329 | DRSC03046 | 2 | –
CG7329 | DRSC26137 | 2 | –
Diedel3 | DRSC19544 | 7 | –
Su(H) | DRSC03445 | 10 | –
Gr98b | DRSC21675 | 6 | –
CG18547 | DRSC15345 | 6 | –
CG10341 | DRSC02040 | 13 | –
Obp22a | DRSC00088 | 6 | –
CG2608 | DRSC02709 | 5 | –
CG7135 | DRSC20026 | 12 | –
CG7135 | DRSC29942 | 8 | –
Wnt10 | DRSC02797 | 4 | –
Wnt10 | DRSC29973 | 8 | –
CG6126 | DRSC15971 | 5 | –
jv | DRSC08831 | 6 | –
jv | DRSC25736 | 10 | –

Just “mitotic cells, replicate 1”, for 10 of the entries above:
swm [DRSC02012] = 13
swm [DRSC21831] = 5
Zip71B [DRSC09686] = 7
Zip71B [DRSC29491] = 7
MtnB [DRSC22744] = 6
MtnB [DRSC29147] = 2
CG3592 [DRSC18315] = 17
Osi21 [DRSC02408] = 2
Dark [DRSC05922] = 5
Dark [DRSC27800] = 4
